Measured values as given in the supplement of paper PMC12067093, “Discovery and optimisation of a covalent ligand for TRIM25 and its application to targeted protein ubiquitination” (Chemical Science, 2025).
Some of the results follow.

Compound: CC1Cc2ccccc2N1C(=O)C1CCCN(C1)C(=O)CCl (mixture of isomers) [TRIM25 ligand 11 (diastereomer mixture)]
Experiment: probe-labelled cysteine peptide fold change vs DMSO (competition) (log2 fold change); higher = less target engagement (more negative = stronger competition)
Conditions: THP-1, incubation time: 4 h
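Also: competitive chemoproteomic profiling in live THP-1 cells with an iodoacetamide desthiobiotin (IA-DTB) probe, comparing probe-labelled peptide intensities in compound-treated cells against DMSO-treated controls.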

Target | probe-labelled cysteine peptide fold change (10 µM) | probe-labelled cysteine peptide fold change (50 µM)
SND1_Q7KZF4_837_DIQNTQCLLNVEHLSAGCPHVTLQFADSKGDVGLGLVK (UniProt Q7KZF4) | -0.251 | -0.464
SNRNP40_Q96DI7_72_CSSLQAPIMLLSGHEGEVYCCK (UniProt Q96DI7) | 0.165 | 0.0428
SNRNP200_O75643_516_TNVALMCMLR (UniProt O75643) | 0.0159 | 0.0911
SLMAP_Q14BN4_641_CQQCEDQQR (UniProt Q14BN4) | 0.151 | 0.124
SLC27A2_O14975_414_YDVEKDEPVRDENGYCVR (UniProt O14975) | -0.0156 | -0.0311
SMC2_O95347_132_VQDLFCSVGLNVNNPHFLIMQGR (UniProt O95347) | 0.0533 | 0.0291
SMC5_Q8IY18_176_VAALNIQVGNLCQFLPQDK (UniProt Q8IY18) | -0.0763 | 0.0894
SMAD4_Q13485_115_YCQYAFDLK (UniProt Q13485) | -0.0473 | -0.0401
SMC2_O95347_585_CIAPETLR (UniProt O95347) | 0.0281 | 0.102
SMPD2_O60906_189_KADVVLLCGDLNMHPEDLGCCLLK (UniProt O60906) | -0.239 | 0.0116
SMC4_Q9NTJ3_1083_CHEMKPNLGAIAEYK (UniProt Q9NTJ3) | -0.174 | -0.291
SLFN13_Q68D06_631_ILYVCENQPLR (UniProt Q68D06) | -0.0271 | 0.195
SMC5_Q8IY18_726_LMEQDTCNLEEEERK (UniProt Q8IY18) | -0.0745 | -0.261
SMYD3_Q9H7B4_263_QLRDQYCFECDCFR (UniProt Q9H7B4) | -0.0377 | -0.0451
SMARCA5_O60264_519_VLDILEDYCMWR (UniProt O60264) | -0.0513 | -0.0283
SND1_Q7KZF4_268_DVQIILESCHNQNILGTILHPNGNITELLLK (UniProt Q7KZF4) | 0.125 | -0.0599
SMC1A_Q14683_1180_EQSTCNFQAIVISLK (UniProt Q14683) | -0.0336 | 0.0396
SLC7A7_Q9UM01_349_EGHLPDAICMIHVER (UniProt Q9UM01) | 0.0357 | 0.0274
SLC27A3_Q5K4L6_579_DVFRPGDVFFNTGDLLVCDDQGFLR (UniProt Q5K4L6) | -0.1 | -0.123
SMG8_Q8ND04_72_FSLVNTVCDR (UniProt Q8ND04) | 0.0872 | 0.0377
SLU7_O95391_445_CCHSFFK (UniProt O95391) | 0.132 | 0.191

Full records from above:
SND1_Q7KZF4_268_DVQIILESCHNQNILGTILHPNGNITELLLK (UniProt Q7KZF4) as listed: probe-labelled cysteine peptide fold change (10 µM): 0.125; probe-labelled cysteine peptide fold change (50 µM): -0.0599
SNRNP200_O75643_516_TNVALMCMLR (UniProt O75643) as listed: probe-labelled cysteine peptide fold change (10 µM): 0.0159; probe-labelled cysteine peptide fold change (50 µM): 0.0911
SMC5_Q8IY18_726_LMEQDTCNLEEEERK (UniProt Q8IY18) as listed: probe-labelled cysteine peptide fold change (10 µM): -0.0745; probe-labelled cysteine peptide fold change (50 µM): -0.261

Next entries.

Target | probe-labelled cysteine peptide fold change (10 µM) | probe-labelled cysteine peptide fold change (50 µM)
SLC44A1_Q8WWI5_159_SSVLCPK (UniProt Q8WWI5) | 0.0703 | 0.0677
SMG5_Q9UPR3_865_AQSAMSPYLVPDTQALCHHLPVIR (UniProt Q9UPR3) | 0.13 | 0.0263
SMS_P52788_248_GDCYQVLIEDCIPVLK (UniProt P52788) | 0.0308 | 0.0591
SMURF2_Q9HAU4_706_LFTIHQIDACTNNLPK (UniProt Q9HAU4) | -0.109 | -0.298
SMARCA2_P51531_91_GIVEDIHCGSMK (UniProt P51531) | -0.022 | -0.253
SMAD5_Q99717_378_IPSSCSLK (UniProt Q99717) | -0.0851 | 0.000243
SLC9A1_P19634_794_CLSDPGPHPEPGEGEPFFPK (UniProt P19634) | 0.0599 | 0.0131
SLC43A3_Q8NBI5_226_GHIPYPLPPNYSYGLCPGNGTTK (UniProt Q8NBI5) | 0.0564 | 0.256
SND1_Q7KZF4_826+837_DIQNTQCLLNVEHLSAGCPHVTLQFADSKGDVGLGLVK (UniProt Q7KZF4) | -0.353 | -0.434
SMPD1_P17405_590_GHPPSEPCGTPCR (UniProt P17405) | 0.266 | 0.368
SND1_Q7KZF4_826_DIQNTQCLLNVEHLSAGCPHVTLQFADSKGDVGLGLVK (UniProt Q7KZF4) | -0.352 | -0.529
SLC27A3_Q5K4L6_411_FSAGQFWEDCQQHR (UniProt Q5K4L6) | 0.138 | 0.297
SLC31A1_O15431_189_AVVVDITEHCH (UniProt O15431) | -0.00846 | 0.165
SMG6_Q86US8_182_VEEEEVLNQVEQLRVEEDECR (UniProt Q86US8) | -0.0867 | -0.275
SLFN11_Q7Z7L1_322_VNPFCCAVFSEAPNSWIVEDK (UniProt Q7Z7L1) | 0.661 | 0.447
SMCHD1_A6NHR9_897_GPVNSCQGK (UniProt A6NHR9) | -0.0594 | -0.0254
SLC27A2_O14975_149_SLLHCFQCCGAK (UniProt O14975) | 0.128 | 0.214
SNAPC3_Q92966_92_DLDCSLEAAAELR (UniProt Q92966) | -0.125 | -0.000743
SMARCA2_P51531_968_CDMSALQK (UniProt P51531) | 0.0315 | 0.0598
SMARCD2_Q92925_298_CTLLLMLDHQPPQYK (UniProt Q92925) | -0.0298 | -0.00447
